According to patent US20100190693A1:
These are yes or no findings as the source states them, for the method shown. Binding seen in cells or lysates may run through a third protein. Here binding means that the protein was enriched with, or labelled near, the bait; the list need not be complete. Where a sequence is shown, tags or fusion partners need not be part of it.

The chains behind the UniProt entries cited, without tags or fusion partners.
UniProt P62258: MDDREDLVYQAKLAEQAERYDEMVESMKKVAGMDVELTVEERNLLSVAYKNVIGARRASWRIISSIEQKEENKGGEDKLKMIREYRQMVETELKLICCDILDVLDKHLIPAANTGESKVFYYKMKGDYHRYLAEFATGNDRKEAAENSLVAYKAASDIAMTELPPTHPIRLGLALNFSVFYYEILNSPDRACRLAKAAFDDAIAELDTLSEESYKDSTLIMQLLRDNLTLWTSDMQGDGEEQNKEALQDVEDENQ

Target: 14-3-3ε (UniProt P62258)
Test: proteomic (mass spectrometry) analysis of Flag immunoprecipitates; coverage not tied to one TORC

B1: Flag-tagged TORC1 (protein, UniProt Q6UUV9 1-634, looked up, not shown: small tags and cut ends)
chain: MATSNNPRKFSEKIALHNQKQAEETAAFEEVMKDLSLTRAARLQLQKSQYLQLGPSRGQYYGGSLPNVNQIGSGTMDLPFQTPFQSSGLDTSRTTRHHGLVDRVYRERGRLGSPHRRPLSVDKHGRQADSCPYGTMYLSPPADTSWRRTNSDSALHQSTMTPTQPESFSSGSQDVHQKRVLLLTVPGMEETTSEADKNLSKQAWDTKKTGSRPKSCEVPGINIFPSADQENTTALIPATHNTGGSLPDLTNIHFPSPLPTPLDPEEPTFPALSSSSSTGNLAANLTHLGIGGAGQGMSTPGSSPQHRPAGVSPLSLSTEARRQQASPTLSPLSPITQAVAMDALSLEQQLPYAFFTQAGSQQPPPQPQPPPPPPPASQQPPPPPPPQAPVRLPPGGPLLPSASLTRGPQPPPLAVTVPSSLPQSPPENPGQPSMGIDIASAPALQQYRTSAGSPANQSPTSPVSNQGFSPGSSPQHTSTLGSVFGDAYYEQQMAARQANALSHQLEQFNMMENAISSSSLYSPGSTLNYSQAAMMGLTGSHGSLPDSQQLGYASHSGIPNIILTVTGESPPSLSKELTSSLAGVGDVSFDSDSQFPLDELKIDPLTLDGLHMLNDPDMVLADPATEDTFRMDRL
binding: binds

B2: Flag-tagged TORC2 (protein, UniProt Q53ET0 1-693, looked up, not shown: small tags and cut ends)
chain: MATSGANGPGSATASASNPRKFSEKIALQKQRQAEETAAFEEVMMDIGSTRLQAQKLRLAYTRSSHYGGSLPNVNQIGSGLAEFQSPLHSPLDSSRSTRHHGLVERVQRDPRRMVSPLRRYTRHIDSSPYSPAYLSPPPESSWRRTMAWGNFPAEKGQLFRLPSALNRTSSDSALHTSVMNPSPQDTYPGPTPPSILPSRRGGILDGEMDPKVPAIEENLLDDKHLLKPWDAKKLSSSSSRPRSCEVPGINIFPSPDQPANVPVLPPAMNTGGSLPDLTNLHFPPPLPTPLDPEETAYPSLSGGNSTSNLTHTMTHLGISRGMGLGPGYDAPGLHSPLSHPSLQSSLSNPNLQASLSSPQPQLQGSHSHPSLPASSLARHVLPTTSLGHPSLSAPALSSSSSSSSTSSPVLGAPSYPASTPGASPHHRRVPLSPLSLLAGPADARRSQQQLPKQFSPTMSPTLSSITQGVPLDTSKLSTDQRLPPYPYSSPSLVLPTQPHTPKSLQQPGLPSQSCSVQSSGGQPPGRQSHYGTPYPPGPSGHGQQSYHRPMSDFNLGNLEQFSMESPSASLVLDPPGFSEGPGFLGGEGPMGGPQDPHTFNHQNLTHCSRHGSGPNIILTGDSSPGFSKEIAAALAGVPGFEVSAAGLELGLGLEDELRMEPLGLEGLNMLSDPCALLPDPAVEESFRSDRLQ
modifications: phosphorylated in cells (Ser171 and other serines)
binding: binds
